The supplement of paper PMC10849652
The list shows a part of the results.

Chains of the proteins cited; added tags and fusions are not shown. Lines headed by an entry give the natural chain unless they say otherwise; changes in a name come on top.
UniProt Q9P2I0: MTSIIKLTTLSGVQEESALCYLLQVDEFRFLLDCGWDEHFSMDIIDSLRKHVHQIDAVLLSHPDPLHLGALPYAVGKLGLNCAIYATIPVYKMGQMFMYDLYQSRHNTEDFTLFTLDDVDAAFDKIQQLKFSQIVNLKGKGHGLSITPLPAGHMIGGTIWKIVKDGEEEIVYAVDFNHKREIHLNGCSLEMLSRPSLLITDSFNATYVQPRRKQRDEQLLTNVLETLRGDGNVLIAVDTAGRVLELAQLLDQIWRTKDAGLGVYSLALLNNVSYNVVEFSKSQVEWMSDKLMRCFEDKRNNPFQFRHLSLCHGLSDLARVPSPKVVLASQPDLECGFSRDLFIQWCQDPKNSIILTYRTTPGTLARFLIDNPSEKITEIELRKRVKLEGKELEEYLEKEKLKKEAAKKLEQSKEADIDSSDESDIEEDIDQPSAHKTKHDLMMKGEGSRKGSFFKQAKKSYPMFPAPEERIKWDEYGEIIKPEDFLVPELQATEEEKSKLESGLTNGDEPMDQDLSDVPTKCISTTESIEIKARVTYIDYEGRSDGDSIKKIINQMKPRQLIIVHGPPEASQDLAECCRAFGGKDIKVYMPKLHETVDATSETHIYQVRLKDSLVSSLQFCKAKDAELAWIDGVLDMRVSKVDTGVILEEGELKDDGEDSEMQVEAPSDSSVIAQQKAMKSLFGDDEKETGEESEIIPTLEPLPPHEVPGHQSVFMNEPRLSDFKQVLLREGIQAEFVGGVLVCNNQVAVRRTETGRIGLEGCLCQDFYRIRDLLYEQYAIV
UniProt P13073, whole entry, looked up: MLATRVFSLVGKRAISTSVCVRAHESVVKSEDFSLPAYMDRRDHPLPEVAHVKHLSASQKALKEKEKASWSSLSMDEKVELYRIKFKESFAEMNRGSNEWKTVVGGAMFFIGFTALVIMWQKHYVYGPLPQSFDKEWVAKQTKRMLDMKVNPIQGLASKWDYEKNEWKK
UniProt Q5HYK3: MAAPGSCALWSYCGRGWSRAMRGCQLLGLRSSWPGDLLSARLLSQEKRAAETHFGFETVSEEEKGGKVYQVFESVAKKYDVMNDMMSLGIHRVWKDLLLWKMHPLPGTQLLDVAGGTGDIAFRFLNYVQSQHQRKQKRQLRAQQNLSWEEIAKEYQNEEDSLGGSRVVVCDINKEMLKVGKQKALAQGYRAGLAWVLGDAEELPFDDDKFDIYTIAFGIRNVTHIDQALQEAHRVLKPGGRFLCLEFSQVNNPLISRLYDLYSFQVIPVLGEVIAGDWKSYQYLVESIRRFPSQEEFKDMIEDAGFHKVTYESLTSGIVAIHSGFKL
UniProt O75629: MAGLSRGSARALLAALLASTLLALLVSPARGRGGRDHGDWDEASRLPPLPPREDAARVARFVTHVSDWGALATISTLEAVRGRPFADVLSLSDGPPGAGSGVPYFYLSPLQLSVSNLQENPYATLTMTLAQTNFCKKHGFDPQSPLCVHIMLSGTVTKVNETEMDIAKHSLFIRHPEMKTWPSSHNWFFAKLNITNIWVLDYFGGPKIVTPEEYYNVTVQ
UniProt Q9UBW8: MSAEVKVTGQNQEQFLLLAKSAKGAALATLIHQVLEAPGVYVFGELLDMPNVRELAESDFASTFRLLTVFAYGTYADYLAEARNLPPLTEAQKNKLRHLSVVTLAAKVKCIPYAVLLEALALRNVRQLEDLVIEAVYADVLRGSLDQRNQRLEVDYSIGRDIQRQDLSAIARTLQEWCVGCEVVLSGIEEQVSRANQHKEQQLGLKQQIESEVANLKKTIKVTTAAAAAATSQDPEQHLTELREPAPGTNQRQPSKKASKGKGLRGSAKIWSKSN
UniProt Q9BRF8, whole entry, looked up: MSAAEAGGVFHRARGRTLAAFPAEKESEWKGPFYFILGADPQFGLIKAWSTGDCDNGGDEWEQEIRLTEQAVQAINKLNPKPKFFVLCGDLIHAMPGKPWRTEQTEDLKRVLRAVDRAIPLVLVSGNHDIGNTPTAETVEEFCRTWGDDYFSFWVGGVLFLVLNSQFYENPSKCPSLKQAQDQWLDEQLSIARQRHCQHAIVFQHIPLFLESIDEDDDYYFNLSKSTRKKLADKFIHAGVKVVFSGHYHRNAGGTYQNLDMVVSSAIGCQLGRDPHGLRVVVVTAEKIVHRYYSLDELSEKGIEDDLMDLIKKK
UniProt O95825: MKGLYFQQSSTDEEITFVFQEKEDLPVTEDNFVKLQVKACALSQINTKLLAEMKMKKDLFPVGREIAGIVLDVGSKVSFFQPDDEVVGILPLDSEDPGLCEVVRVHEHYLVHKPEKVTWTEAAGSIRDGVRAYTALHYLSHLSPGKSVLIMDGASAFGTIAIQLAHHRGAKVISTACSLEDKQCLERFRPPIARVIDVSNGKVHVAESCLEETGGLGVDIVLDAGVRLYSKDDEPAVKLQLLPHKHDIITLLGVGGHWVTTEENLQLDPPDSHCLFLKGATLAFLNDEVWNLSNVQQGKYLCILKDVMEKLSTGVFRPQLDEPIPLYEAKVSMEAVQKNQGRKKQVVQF
UniProt P09669, whole entry, looked up: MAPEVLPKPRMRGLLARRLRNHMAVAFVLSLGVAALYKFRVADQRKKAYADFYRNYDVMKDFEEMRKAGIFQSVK
UniProt O14579: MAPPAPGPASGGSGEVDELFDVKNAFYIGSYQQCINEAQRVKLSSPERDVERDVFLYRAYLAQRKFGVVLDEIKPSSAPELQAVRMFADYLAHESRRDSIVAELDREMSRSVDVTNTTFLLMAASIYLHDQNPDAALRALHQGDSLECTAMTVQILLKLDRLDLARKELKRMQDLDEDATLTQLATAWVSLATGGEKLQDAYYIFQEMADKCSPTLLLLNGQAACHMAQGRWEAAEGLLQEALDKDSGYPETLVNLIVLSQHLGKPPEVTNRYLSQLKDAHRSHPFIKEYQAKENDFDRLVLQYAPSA
UniProt P52943: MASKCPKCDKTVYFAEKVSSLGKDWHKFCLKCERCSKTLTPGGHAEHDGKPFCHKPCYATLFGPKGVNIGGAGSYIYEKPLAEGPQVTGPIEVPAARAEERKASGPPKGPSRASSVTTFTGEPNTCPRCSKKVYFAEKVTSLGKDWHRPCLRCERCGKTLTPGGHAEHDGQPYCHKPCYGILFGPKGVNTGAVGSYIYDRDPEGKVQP
UniProt Q5RI15: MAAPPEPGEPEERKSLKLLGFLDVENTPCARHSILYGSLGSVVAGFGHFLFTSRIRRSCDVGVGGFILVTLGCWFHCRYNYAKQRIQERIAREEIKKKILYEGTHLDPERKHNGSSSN
UniProt P67870, whole entry, looked up: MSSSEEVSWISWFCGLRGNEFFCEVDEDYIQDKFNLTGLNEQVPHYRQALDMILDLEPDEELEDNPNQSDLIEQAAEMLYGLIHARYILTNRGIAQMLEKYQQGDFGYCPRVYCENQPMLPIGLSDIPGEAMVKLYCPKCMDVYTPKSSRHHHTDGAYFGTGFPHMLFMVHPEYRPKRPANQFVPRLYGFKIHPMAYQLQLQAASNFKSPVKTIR
UniProt O14548: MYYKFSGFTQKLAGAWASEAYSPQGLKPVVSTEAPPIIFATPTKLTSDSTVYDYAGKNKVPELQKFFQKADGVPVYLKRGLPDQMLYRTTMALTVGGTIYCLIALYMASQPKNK
UniProt P20674, whole entry, looked up: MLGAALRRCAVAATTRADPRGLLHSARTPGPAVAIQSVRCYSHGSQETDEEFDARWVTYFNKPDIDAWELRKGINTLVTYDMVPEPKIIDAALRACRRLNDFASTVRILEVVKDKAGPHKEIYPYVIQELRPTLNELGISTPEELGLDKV
UniProt Q96SW2: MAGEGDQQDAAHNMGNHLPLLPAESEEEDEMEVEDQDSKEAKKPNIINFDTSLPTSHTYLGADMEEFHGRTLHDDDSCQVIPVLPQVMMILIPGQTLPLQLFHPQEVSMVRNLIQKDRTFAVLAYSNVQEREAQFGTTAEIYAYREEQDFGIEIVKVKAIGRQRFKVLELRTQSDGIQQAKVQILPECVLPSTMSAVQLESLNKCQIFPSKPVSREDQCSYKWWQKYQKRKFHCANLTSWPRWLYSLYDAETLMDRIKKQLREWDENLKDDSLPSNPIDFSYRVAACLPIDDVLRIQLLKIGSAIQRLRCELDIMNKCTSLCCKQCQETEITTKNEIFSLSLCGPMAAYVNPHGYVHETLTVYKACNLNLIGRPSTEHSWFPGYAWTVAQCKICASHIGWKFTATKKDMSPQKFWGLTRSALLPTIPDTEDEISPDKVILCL
UniProt Q9GZQ3, whole entry, looked up: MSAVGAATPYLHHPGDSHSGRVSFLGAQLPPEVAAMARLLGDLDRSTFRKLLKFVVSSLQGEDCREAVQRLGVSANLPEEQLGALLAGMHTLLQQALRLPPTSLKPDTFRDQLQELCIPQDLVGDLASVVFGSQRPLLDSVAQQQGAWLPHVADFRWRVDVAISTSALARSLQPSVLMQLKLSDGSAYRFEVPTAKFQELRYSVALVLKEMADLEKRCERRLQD
UniProt O75976: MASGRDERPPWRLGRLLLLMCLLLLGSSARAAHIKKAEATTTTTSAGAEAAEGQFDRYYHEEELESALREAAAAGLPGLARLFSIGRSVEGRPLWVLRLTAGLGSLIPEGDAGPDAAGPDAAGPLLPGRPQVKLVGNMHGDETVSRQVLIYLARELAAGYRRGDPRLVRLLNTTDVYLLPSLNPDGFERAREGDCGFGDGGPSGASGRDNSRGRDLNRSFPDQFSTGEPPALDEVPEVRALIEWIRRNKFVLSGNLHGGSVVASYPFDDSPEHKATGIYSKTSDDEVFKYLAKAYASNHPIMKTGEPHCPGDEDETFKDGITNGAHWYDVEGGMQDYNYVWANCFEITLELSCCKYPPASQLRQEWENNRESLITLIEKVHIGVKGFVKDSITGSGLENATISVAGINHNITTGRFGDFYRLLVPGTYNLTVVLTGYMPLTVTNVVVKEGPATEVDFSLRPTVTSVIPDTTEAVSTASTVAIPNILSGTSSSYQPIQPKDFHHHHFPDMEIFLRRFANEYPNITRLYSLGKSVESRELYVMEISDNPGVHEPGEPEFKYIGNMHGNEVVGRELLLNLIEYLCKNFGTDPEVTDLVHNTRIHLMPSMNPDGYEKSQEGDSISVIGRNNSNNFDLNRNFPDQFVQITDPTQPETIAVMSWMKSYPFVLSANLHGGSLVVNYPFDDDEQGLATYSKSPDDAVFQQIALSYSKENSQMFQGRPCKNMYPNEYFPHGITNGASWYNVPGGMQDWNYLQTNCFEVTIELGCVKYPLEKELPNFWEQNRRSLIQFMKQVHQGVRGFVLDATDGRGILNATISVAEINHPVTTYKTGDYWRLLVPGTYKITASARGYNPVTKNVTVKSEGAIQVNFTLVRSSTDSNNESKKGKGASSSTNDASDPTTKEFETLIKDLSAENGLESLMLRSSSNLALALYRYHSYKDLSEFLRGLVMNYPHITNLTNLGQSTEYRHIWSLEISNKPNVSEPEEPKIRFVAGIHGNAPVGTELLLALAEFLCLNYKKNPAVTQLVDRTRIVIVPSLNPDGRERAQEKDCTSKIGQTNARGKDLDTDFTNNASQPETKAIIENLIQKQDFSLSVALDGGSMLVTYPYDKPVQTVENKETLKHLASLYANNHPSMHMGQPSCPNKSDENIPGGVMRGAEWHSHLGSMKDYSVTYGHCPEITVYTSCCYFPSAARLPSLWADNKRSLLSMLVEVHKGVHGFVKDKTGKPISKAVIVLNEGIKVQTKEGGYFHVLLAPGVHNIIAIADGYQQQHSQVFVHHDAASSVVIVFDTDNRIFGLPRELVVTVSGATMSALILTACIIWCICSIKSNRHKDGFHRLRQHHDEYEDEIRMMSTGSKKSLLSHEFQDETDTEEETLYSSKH
UniProt Q9ULV4, whole entry, looked up: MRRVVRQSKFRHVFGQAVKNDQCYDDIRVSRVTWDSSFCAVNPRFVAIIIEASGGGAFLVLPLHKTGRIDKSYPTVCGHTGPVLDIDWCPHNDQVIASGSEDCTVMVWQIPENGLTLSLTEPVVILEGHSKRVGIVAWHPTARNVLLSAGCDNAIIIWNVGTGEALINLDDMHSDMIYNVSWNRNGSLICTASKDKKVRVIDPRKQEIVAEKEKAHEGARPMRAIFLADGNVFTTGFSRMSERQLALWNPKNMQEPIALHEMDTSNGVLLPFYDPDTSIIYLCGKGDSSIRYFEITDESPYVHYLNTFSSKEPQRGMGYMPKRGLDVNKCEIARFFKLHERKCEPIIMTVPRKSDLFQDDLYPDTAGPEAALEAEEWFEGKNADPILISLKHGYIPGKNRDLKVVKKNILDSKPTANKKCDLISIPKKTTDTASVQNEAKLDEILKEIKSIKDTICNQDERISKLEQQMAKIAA
UniProt Q8IUI8: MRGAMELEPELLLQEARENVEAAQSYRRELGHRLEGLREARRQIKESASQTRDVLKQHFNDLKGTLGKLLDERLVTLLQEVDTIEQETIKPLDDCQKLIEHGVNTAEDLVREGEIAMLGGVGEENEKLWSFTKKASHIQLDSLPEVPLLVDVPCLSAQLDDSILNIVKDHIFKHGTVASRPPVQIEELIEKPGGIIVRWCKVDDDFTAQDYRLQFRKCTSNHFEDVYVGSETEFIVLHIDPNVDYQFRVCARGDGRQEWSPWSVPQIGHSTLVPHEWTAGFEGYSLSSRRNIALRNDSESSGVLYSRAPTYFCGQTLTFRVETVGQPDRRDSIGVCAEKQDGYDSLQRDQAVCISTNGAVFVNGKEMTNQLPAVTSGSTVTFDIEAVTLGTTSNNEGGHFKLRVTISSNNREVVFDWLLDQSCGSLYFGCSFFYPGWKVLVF

Experiments:
Experiment in all cases: log2 fold change, soluble protein after heating vs DMSO (PISA); higher = thermal stabilisation; K562 cells, 10 uM, 30 min; active = over 0.2 and 3.5 SD of the protein, either way, in both replicates (recomputed)
[1] = compound: CC[C@@H]1C(=O)N(C)c2cnc(Nc3ccc(C(=O)NC4CCN(C)CC4)cc3OC)nc2N1C1CCCC1
In short: (§1)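 Quantification of soluble protein used TMTpro 16plex LC-MS/MS, with channel sums equalised. Samples were the supernatant after 21,000xg for 90 min of pooled aliquots from K562 cells (2×10^6 cells/mL) treated with 10 μM compound for 30 min, heated for 3 min over 48°C-58°C, and extracted in PBS with 0.5% NP-40 at 4°C. Values, from duplicates, describe thermal stability against control samples on a log2 fold-change scale.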

[2] = compound: CC[C@@H]1C(=O)N(C)c2cnc(Nc3ccc(C(=O)N[C@H]4CC[C@H](N5CCN(CC6CC6)CC5)CC4)cc3OC)nc2N1C(C)C [volasertib]
In short: as §1

[3] = compound: CC[C@H](C)N1C=C(C2=C(C=C(C=C21)C3=CN=C(C=C3)N4CCNCC4)C(=O)NCC5=C(C=C(NC5=O)C)C)C
In short: as §1

[4] = compound: CC[C@H](C)[C@@H](C(=O)N[C@@H]([C@@H](C)O)C(=O)N[C@@H](CC(C)C)C(=O)[C@]1(CO1)C)NC(=O)[C@H]([C@@H](C)CC)N(C)C(=O)C [epoxomicin]
In short: as §1

[5] = compound: CCn1c(C(=O)N(C2CC2)C2CC2)cc2c3c(ncn3C)c(Nc3cc(C)n(C)n3)nc21
In short: as §1

[6] = compound: CCn1cc(-c2ccnc3[nH]c(-c4cccc(CN(C)C)c4)cc23)c(-c2ccc(NC(=O)N(C)C)cc2)n1
In short: as §1

[7] = compound: CN(C)CC(=O)Nc1ccc2[nH]c(=O)c3ccccc3c2c1
In short: as §1

[8] = compound: CN(CCOC1=CC=C(C=C1)C[C@H]2C(=O)NC(=O)S2)C3=CC=CC=N3 (racemic) [rosiglitazone]
In short: as §1

[9] = compound: CN1C2=C(C3=C1C(=O)N(N=C3)CC4=CC(=CC=C4)N)SC(=C2)S(=O)C
In short: as §1

[10] = compound: CN1CCC(CNc2ccc3ncc(-c4cccc(OC(F)(F)F)c4)n3n2)CC1
In short: as §1

Measured: log2 fold change

CPSF2 (UniProt Q9P2I0)
inactive: [1] -0.001 | [2] -0.025 | [3] -0.021 | [4] -0.009 | [5] -0.064 | [6] -0.023 | [7] 0.041 | [8] 0.23 | [9] -0.014 | [10] -0.071

CS (UniProt F8VU34)
inactive: [1] -0.093

COX4I1 (UniProt P13073)
inactive: [1] 0.015 | [2] 0.042 | [3] -0.046 | [4] -0.029 | [5] 0.042 | [6] -0.003 | [7] -0.007 | [8] 0.004 | [9] -0.04 | [10] 0.073

CSDE1 isoform 4 (UniProt O75534)
inactive: [1] 0.07 | [2] -0.321 | [3] 0.115 | [4] -0.172 | [5] -0.064 | [6] 0.122 | [7] 0.011 | [8] 0.017 | [9] 0.275 | [10] -0.055

COQ5 (UniProt Q5HYK3)
inactive: [1] -0.001 | [2] -0.079 | [3] -0.037 | [4] 0.019 | [5] 0.042 | [6] -0.04 | [7] -0.023 | [8] -0.008 | [9] -0.037 | [10] -0.152

CREG1 (UniProt O75629)
inactive: [1] 0.014 | [2] -0.043 | [3] -0.043 | [4] -0.106 | [5] 0.005 | [6] 0.093 | [7] 0.039 | [8] 0.002 | [9] -0.027 | [10] -0.029

COPS7A (UniProt Q9UBW8)
inactive: [1] 0.008 | [2] 0.024 | [3] 0.011 | [4] 0.001 | [5] -0.01 | [6] -0.091 | [7] -0.011 | [8] 0 | [9] -0.054 | [10] 0.011

CPPED1 (UniProt Q9BRF8)
inactive: [1] 0.009 | [2] 0.053 | [3] -0.006 | [4] -0.01 | [5] 0.003 | [6] 0.023 | [7] -0.006 | [8] 0.003 | [9] 0.007 | [10] -0.047

CRYZL1 (UniProt O95825)
inactive: [1] 0.021 | [2] 0.046 | [3] -0.032 | [4] 0.025 | [5] 0.013 | [6] -0.01 | [7] -0.028 | [8] 0 | [9] -0.04 | [10] -0.035

COX6C (UniProt P09669)
inactive: [1] -0.138 | [2] 0.031 | [3] -0.035 | [4] -0.034 | [5] 0.022 | [6] 0.002 | [7] -0.006 | [8] 0.016 | [9] -0.029 | [10] -0.011

COPA isoform 2 (UniProt P53621)
inactive: [1] -0.021 | [2] -0.141 | [3] 0.035 | [4] 0.047 | [5] -0.011 | [6] 0 | [7] -0.003 | [8] 0.005 | [9] -0.032 | [10] -0.03

COPE (UniProt O14579)
inactive: [1] 0.008 | [2] -0.013 | [3] 0.017 | [4] -0.023 | [5] -0.028 | [6] 0.018 | [7] 0.008 | [8] 0.033 | [9] -0.013 | [10] 0.002

CREBBP (UniProt Q92793)
inactive: [1] 0 | [2] -0.024 | [3] 0.086 | [4] 0.055 | [5] -0.043 | [6] -0.124 | [7] 0.045 | [8] 0.073 | [9] -0.067 | [10] 0.05

CRIP2 isoform 2 (UniProt P52943)
inactive: [1] 0.066 | [2] -0.16 | [3] -0.048 | [4] -0.074 | [5] 0.025 | [7] -0.034 | [8] -0.019

COMTD1 (UniProt Q86VU5)
inactive: [1] -0.053 | [2] -0.018 | [3] 0.004 | [4] -0.074 | [5] -0.08 | [6] -0.045 | [7] 0.031 | [8] -0.021 | [9] -0.105 | [10] -0.009

COX20 isoform 2 (UniProt Q5RI15)
active: [6] 0.294
inactive: [1] -0.019 | [2] 0.077 | [3] -0.01 | [4] 0 | [7] -0.038 | [9] 0.002 | [10] 0.081

CSNK2B (UniProt P67870)
inactive: [1] -0.029 | [2] 0.009 | [3] 0.043 | [4] 0.019 | [6] -0.051 | [7] 0.027 | [9] -0.048 | [10] -0.176

COX7A2L (UniProt O14548)
inactive: [1] -0.036 | [2] 0.04 | [3] -0.032 | [4] 0.144 | [5] 0.048 | [6] -0.029 | [7] -0.025 | [8] 0.002 | [9] 0.056 | [10] 0.022

COX5A (UniProt P20674)
inactive: [1] 0.048 | [2] -0.08 | [3] -0.081 | [4] 0.234 | [6] 0.072 | [7] -0.001 | [9] -0.063 | [10] 0.269

CORO7 isoform 3 (UniProt P57737)
inactive: [1] -0.026 | [2] -0.016 | [3] -0.05 | [4] 0.031 | [5] 0.054 | [6] 0.082 | [7] 0.016 | [8] 0.021 | [9] 0.002 | [10] -0.246

CRBN (UniProt Q96SW2)
inactive: [1] 0.008 | [2] 0.005 | [3] 0.004 | [4] 0.046 | [5] -0.102 | [6] -0.025 | [7] -0.019 | [8] -0.001 | [9] -0.011 | [10] -0.013

COPS6 (UniProt Q7L5N1)
inactive: [1] -0.02 | [2] -0.033 | [3] 0.007 | [4] 0.045 | [5] 0.002 | [6] -0.04 | [7] 0.018 | [8] 0.012 | [9] -0.002 | [10] 0.016

COMMD5 (UniProt Q9GZQ3)
inactive: [1] -0.046 | [2] 0.049 | [3] -0.006 | [4] 0.007 | [5] 0.061 | [6] -0.003 | [7] 0.084 | [8] 0.051 | [9] 0.046 | [10] 0.017

CPD (UniProt O75976)
active: [10] -0.399
inactive: [1] -0.152 | [2] -0.33 | [3] -0.017 | [4] 0.025 | [6] -0.044 | [7] -0.024 | [9] 0.029

CORO1C isoform 3 (UniProt Q9ULV4)
inactive: [1] -0.036 | [2] -0.213 | [3] 0.019 | [4] 0.043 | [5] -0.043 | [6] -0.051 | [7] -0.026 | [8] -0.012 | [9] -0.035 | [10] 0.132

CPSF1 (UniProt Q10570)
inactive: [1] 0.053 | [2] -0.105 | [3] 0.031 | [4] -0.038 | [6] 0.026 | [7] -0.104 | [9] 0.116 | [10] 0.165

CRPPA (UniProt A4D126)
inactive: [1] 0.047 | [2] 0.029 | [3] -0.019 | [4] 0.001 | [5] -0.018 | [6] 0.012 | [7] 0.016 | [8] 0.029 | [9] -0.089 | [10] -0.066

COQ6 (UniProt Q9Y2Z9)
inactive: [1] -0.019 | [2] -0.051 | [3] 0.032 | [4] -0.094 | [5] 0.042 | [6] -0.16 | [7] 0.031 | [8] 0.008 | [9] -0.028 | [10] -0.121

CS (UniProt O75390)
active: [10] -0.222
inactive: [1] 0.04 | [2] 0.158 | [3] 0.027 | [4] 0.01 | [6] -0.059 | [7] 0.032 | [9] -0.088

2 successive records already listed, for reference:
CPSF1 (UniProt Q10570)
inactive: [1] 0.053 | [2] -0.105 | [3] 0.031 | [4] -0.038 | [6] 0.026 | [7] -0.104 | [9] 0.116 | [10] 0.165

CRPPA (UniProt A4D126)
inactive: [1] 0.047 | [2] 0.029 | [3] -0.019 | [4] 0.001 | [5] -0.018 | [6] 0.012 | [7] 0.016 | [8] 0.029 | [9] -0.089 | [10] -0.066

Next part:

CSE1L (UniProt P55060)
inactive: [3] 0.047 | [4] 0.03 | [6] -0.068 | [7] 0.008 | [9] -0.095 | [10] -0.181
active: [1] -0.209 | [2] -0.403

CRLF3 (UniProt Q8IUI8)
active: [10] -0.268
inactive: [1] -0.085 | [2] -0.277 | [3] 0.067 | [4] 0 | [6] -0.041 | [7] 0.024 | [9] 0.031

COPG2 (UniProt Q9UBF2)
inactive: [1] 0.006 | [2] -0.122 | [3] 0.022 | [4] -0.027 | [5] -0.022 | [6] -0.021 | [7] 0.009 | [8] 0.013 | [9] -0.061 | [10] 0.007
